PMC3565990
Results are given in words; binding and its absence hold for the method and conditions named. In cells and extracts the contact can be indirect. Tags and fused reporters may be left off the sequences shown.

Amino acid sequences for entries named in this document (tags omitted).
UniProt P29351: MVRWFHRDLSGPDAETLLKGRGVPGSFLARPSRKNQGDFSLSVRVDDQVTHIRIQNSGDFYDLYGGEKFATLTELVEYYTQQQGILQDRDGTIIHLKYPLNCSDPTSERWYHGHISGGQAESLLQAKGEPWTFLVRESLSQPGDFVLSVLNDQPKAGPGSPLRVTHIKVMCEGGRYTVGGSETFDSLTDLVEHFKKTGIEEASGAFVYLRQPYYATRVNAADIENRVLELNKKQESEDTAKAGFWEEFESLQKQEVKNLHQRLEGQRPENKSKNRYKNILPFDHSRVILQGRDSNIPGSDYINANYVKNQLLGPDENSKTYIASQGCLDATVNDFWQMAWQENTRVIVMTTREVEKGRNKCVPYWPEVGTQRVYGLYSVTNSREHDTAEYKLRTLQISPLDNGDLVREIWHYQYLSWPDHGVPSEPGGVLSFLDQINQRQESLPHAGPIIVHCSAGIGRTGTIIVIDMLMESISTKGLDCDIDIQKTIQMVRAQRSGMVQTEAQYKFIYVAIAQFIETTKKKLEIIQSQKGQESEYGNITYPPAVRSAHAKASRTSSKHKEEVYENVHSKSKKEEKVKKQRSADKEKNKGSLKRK

Target: T1, FLAG-tagged human CD72fl YF mutant (CD72flYF) (human) (UniProt P21854)
T1 sequence: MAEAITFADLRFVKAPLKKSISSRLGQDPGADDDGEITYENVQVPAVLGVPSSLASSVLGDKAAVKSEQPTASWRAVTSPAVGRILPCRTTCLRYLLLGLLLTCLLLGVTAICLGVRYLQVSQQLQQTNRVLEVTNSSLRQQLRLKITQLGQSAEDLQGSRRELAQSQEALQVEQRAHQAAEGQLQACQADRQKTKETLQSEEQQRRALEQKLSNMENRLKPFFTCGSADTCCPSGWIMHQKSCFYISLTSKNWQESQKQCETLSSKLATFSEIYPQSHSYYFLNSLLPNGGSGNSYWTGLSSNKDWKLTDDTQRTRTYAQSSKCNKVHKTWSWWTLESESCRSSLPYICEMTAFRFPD
Test: co-IP; K46μv transfectants stimulated with 0.2 μg/ml NP-BSA, lysed in Triton X-100 lysis buffer; FLAG-tagged CD72 immunoprecipitated with anti-FLAG Ab and protein G-Sepharose; Western blot with anti-SHP-1 Ab

binding: no binding
Substance: Src homology 2 domain-containing protein tyrosine phosphatase-1 (SHP-1) (from UniProt P29351 1-595) (enzyme)
